This test concerns the target CrRbcX-IIa(37–156) (Chlamydomonas reinhardtii). Kind of test: crystal structure; fusion protein of CrRbcL 462–473 and CrRbcX-IIa(37–156) on one chain, hanging drop at 20°C, 0.1 M Tris-HCl pH 8.5, 25% PEG2000 monomethyl ether; molecular replacement, 1.97 Å; both purified.

Results are given in words; binding and its absence hold for the method and conditions named. Binding can be weak; no strength is given.

As to WKEIKFEFDTID [C-terminal recognition motif of CrRbcL, residues 462–473], the binding entry is listed as “binds”.

(Values after paper PMC4549274.)
